In the supplement of paper PMC4683952:
The other results are listed elsewhere or left out. No stated cut-off is given here; in the data, active = 2 or more and inactive = the rest. Single values are uncertain here, since repeats match poorly.

These compounds were tested on Lgr5 (MarsCy1-Lgr5-EGFP, U2OS) (assay: cell-surface Lgr5 expression (SCi1 fluorescence, background-subtracted) relative to WT DMSO (fold of DMSO control); higher = more Lgr5 at the plasma membrane). Conditions: U2OS MarsCy1-Lgr5-EGFP stable; treatment time: overnight; library: ActiProbe-5K (TimTec); 25 µM.

cell-surface Lgr5 expression, inactive:
CN1CCC2(CC1)C(C#N)=C(O)NC1=C2C(=O)CC(C)(C)C1 1.06
O=c1cc(-c2cccs2)sc2nc(-c3ccco3)nn12 1.05
Cc1n[nH]c(-c2[nH]nc(C)c2[N+](=O)[O-])c1[N+](=O)[O-] 1.45
CS(=O)(=O)c1nnnn1-c1ccccc1 0.745
Nn1c(SCc2ccccc2F)nnc1-c1ccccc1 1.34
NNC(=O)C(C(=O)NN)C1CCS(=O)(=O)C1 (stereo not given) 1.1
Nc1nonc1-c1noc(-c2cc(F)c(F)cc2Cl)n1 0.447
N#C/C(=C\Nc1ccc(F)c(Cl)c1)C(N)=S 1.11
Cc1cc(C)n(N)c(=O)c1C(=O)O 1.09
NC1=NN(c2ccccc2)CC1 1.18
Cc1cc(C(=O)NC(C(=O)[O-])C(C)C)co1.[Na+] (stereo not given) 1.13
NC(=O)c1c(-c2ccsc2)noc1N 1.03
CCOC(=O)c1[nH]c(=O)[nH]c1CC1C(=O)CC(C)(C)CC1=O 1.24
Cc1nn(CCl)c(C)c1[N+](=O)[O-] 0.993
NC(=O)C1(N2CCCCC2)CCNCC1 1.24
CCOC(=O)/C(=C\C1=CC=C([N+](=O)[O-])C1)NC(=O)c1cccc(C)c1 0.996
CCC(C)SCc1cc(C(=O)O)oc1C (stereo not given) 1.22
O=C1Nc2ccccc2/C1=N\N1C(=O)C2C=CC=CC2C1=O (stereo not given) 1.39
Cc1cc(-c2cc(C)[nH]n2)n[nH]1 1.49
CCc1cc2c(=O)[nH]c(S)nc2s1 1.47
O=C(O)C1CC(=O)N(C2CCCCC2)C1 (stereo not given) 1.45
Cc1c(Br)c([N+](=O)[O-])nn1CC(=O)NNC(=O)Cn1cc([N+](=O)[O-])cn1 1.2
Cc1cc(C)n(/N=C/c2ccc(Br)s2)c(=O)c1C#N 0.963
c1ccc(C(CNCC2CCCO2)c2ccccc2)cc1 (stereo not given) 1.56
Cc1nc2nonc2c2[nH]ccc(=O)c12 0.91
Sc1nc2cc(Cl)cc(Cl)c2o1 1.23
c1cc(N2CCCC2)ccn1 1.41
O=C(Nc1ccc2c(c1)OCO2)OCCCl 1.13
N#CCNC(=O)CSc1nc(SCC(=O)NCC#N)nc(SCC(=O)NCC#N)n1 1.58
Cc1ccc(C2C(C(=O)c3ccco3)=C(O)C(=O)N2CCCN(C)C)o1 (stereo not given) 1.14

For convenience, 2 of the compounds above:
cell-surface Lgr5 expression, inactive:
Nc1nonc1-c1noc(-c2cc(F)c(F)cc2Cl)n1 0.447
N#C/C(=C\Nc1ccc(F)c(Cl)c1)C(N)=S 1.11
